# Results of single-concentration screens

Source: ChEMBL document CHEMBL3988442, “University of Dundee, Small-Polar-MMV Screening Library” (2021).

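Whole-parasite assay of Trypanosoma brucei over 72 hours; the read-out is not stated. Compounds at 10 µM. Direction is inferred from retests: higher values go with stronger inhibition. Values scatter widely below zero; nearly all retest evidence comes from the higher of the two concentrations used. Of about 2,700 compounds tested this way, about 14 (0.51%) reached 50% or more in at least one test.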

The filed quantity is “Percent Effect” (%).
The record does not define 0% and 100%; most values in the screen are far below 50% and negative numbers occur (in some assays of this library far below -100).
This is an unselected part of the compounds tested.

SMILES,percent effect
CCCc1n[nH]c(C2CN(CCC(F)(F)F)CCO2)n1 (stereo unspecified),-14.7%
CCCc1noc(C(C)N2CCN(Cc3nc(C)c(C)o3)CC2)n1 (stereo unspecified),-29.09%
CCc1nc(CN(C(C)=O)C2CCN(Cc3ccccc3F)C2)no1 (stereo unspecified),-36.4%
CCCC(=O)NC(C)c1nnc2n1CCC2 (stereo unspecified),-24.01%
CC(C)c1nc(CN(C)C2CCN(CCc3ccncc3)C2)no1 (stereo unspecified),-61.98%
COc1ccc(OC)c(C(O)CNC(=O)Nc2cccnc2OC)c1 (stereo unspecified),-6.843%
Cn1ccc(C(=O)N2CCN(CC(O)C(C)(C)C)CC2)cc1=O (stereo unspecified),-33.97%
Cn1ncc2c(NCC3CCCN3c3cccnn3)ncnc21 (stereo unspecified),-11.67%
Cc1nn(C)c(N2CCOCC2)c1CNC1COc2ccccc2C1 (stereo unspecified),-70.08%
Cc1nc(CN2CCCN(C(=O)c3c(C)oc(C)c3C)CC2)cs1,-48.91%
Cc1occc1CNC(=O)N1CCC(Cc2cnn(C)c2)C1 (stereo unspecified),-31.76%
Cc1nn(C)c(C)c1C1CCCN1Cc1nc(N)c2ccccc2n1 (stereo unspecified),-38.23%
CC(C)OCc1ccc(CNc2cncc(-n3cccn3)n2)cc1,-21.12%
CC(=O)N1CCC(Nc2cc(F)ccc2OCC2CCCO2)CC1 (stereo unspecified),-21.13%
CC(C)COC(C)C(=O)NCc1ccccc1 (stereo unspecified),-55.4%
Cc1ccc(NC2CCN(C(=O)c3ccc(Cl)cc3F)CC2)nn1,-37.09%
CC(C)Oc1ccc(CNC(=O)NCC(C)(C)C(N)=O)cc1F,42.74%
CC(NC(=O)NCCCc1n[nH]c(N)c1C#N)c1ccccc1F (stereo unspecified),-60.7%
Cn1cc(Cl)cc1C(=O)N1CCN(Cc2cccs2)CC1,-34.55%
Cc1ccc(O)c(C(=O)N2CCOCC2c2c(C)nn(C)c2C)c1 (stereo unspecified),-27.93%
CCC(O)CN1CCN(C(=O)c2cc3ccccc3n2CC)CC1 (stereo unspecified),-58.62%
CCc1ocnc1C(=O)N1CCCC1c1noc(C)n1 (stereo unspecified),-32.07%
O=C(Cc1ccccn1)N1CCN(C(=O)CC2CCCCC2)CC1,-63.39%
O=C(c1ccc2c(c1)OCO2)N1CCCC(n2ccnc2)C1 (stereo unspecified),-34.42%
OC(COCc1cccs1)CN1CCc2c(ncn2C2CC2)C1 (stereo unspecified),-8.118%
COc1ccc(C(=O)N2CCC(Nc3cccnn3)CC2)cn1,-81.04%
COc1c(C)cnc(CN2CCOC(Cn3nc(C)cc3C)C2)c1C (stereo unspecified),-3.814%
O=C(NCCn1ccnc1)N1CCN(Cc2ccsc2)CC1,-24.57%
O=C(NCCc1ccco1)Nc1cc(C(F)(F)F)c[nH]c1=O,-43.86%
Cc1nc(CN2CCCC(NCCCc3ccccc3)C2)no1 (stereo unspecified),-8.986%
COc1cc(CNC(c2ccccc2)c2nccn2C)cc(OC)c1 (stereo unspecified),-46.1%
c1ccc(Cc2nnc(CN3CCn4c(nnc4C4CC4)C3)o2)cc1,-14.76%
Cn1cc(C2CCCN2C(=O)c2ccc(NC3CC3)nc2)cn1 (stereo unspecified),-41.53%
Cc1nc(C)n(CC2CCCN(CC(=O)Nc3ccncc3)C2)n1 (stereo unspecified),-69.73%
Cc1cc(C(=O)NS(C)(=O)=O)c(C)n1-c1ccccc1,-6.07%
CN(Cc1ccc(-n2ccnc2)cc1)CC1CCCN1c1cccnn1 (stereo unspecified),-44.22%

3 of the entries, repeated:

SMILES,percent effect
COc1cc(CNC(c2ccccc2)c2nccn2C)cc(OC)c1 (stereo unspecified),-46.1%
COc1ccc(C(=O)N2CCC(Nc3cccnn3)CC2)cn1,-81.04%
CCCc1n[nH]c(C2CN(CCC(F)(F)F)CCO2)n1 (stereo unspecified),-14.7%